In PMC8212739 (Clinical and Translational Science, 2021):

Assays:
Format in all cases: cell-based
[1] = test system: PHHs in liver MPS; test: LDH production, hepatotoxicant sensitivity, liver MPS; conditions: Homo sapiens, 48 h, read-out: EC50, LDH production
[2] = test system: PHHs in liver MPS; test: Albumin production, hepatotoxicant sensitivity, liver MPS; conditions: Homo sapiens, 48 h, read-out: EC50, albumin secretion
[3] = test system: PHHs in spheroids; test: LDH production, hepatotoxicant sensitivity, spheroids; conditions: Homo sapiens, 48 h, read-out: EC50, LDH production
[4] = test system: PHHs in sandwich cultures; test: LDH production, hepatotoxicant sensitivity, sandwich cultures; conditions: Homo sapiens, 48 h, read-out: EC50, LDH production

With CC/C(=C(\c1ccccc1)c1ccc(OCCN(C)C)cc1)c1ccccc1 [Tamoxifen, tamoxifen] the EC50 [1] was 41.3 µM, the EC50 [2] was 37.7 µM and the EC50 [3] was 18.3 µM. The EC50 [4] was 53.2 µM.
